From PubChem BioAssay AID602441 (National Center for Advancing Translational Sciences (NCATS), 2012)
Screen size: about 1,300 compounds; fewer than 10 were called active. Not shown: some 9% with an inconclusive outcome. The call rests on the fitted dose curve; in most records, active means well fitted curve in the direction sought with a large enough effect; inconclusive means small, poorly fitted or top-dose-only effect, or another doubt; inactive means no such curve, though single readings can be large or run the other way. This is one part of the list.

Test: qHTS for antagonists of the Thyroid Stimulation Hormone Receptor: Hit Validation in Parental Cell Line; further: 0% is about no effect
Settings: parental HEK293 cells lacking TSHR, counter-screen; series mostly up to 56.9 µM; activity change, negative = inhibition: at the top concentration
Summary of the method: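 Counterscreen in untransfected parental HEK-EM 293 cells. Lysate cAMP displaces cAMP-d2 from cryptate-tagged anti-cAMP antibody, and homogeneous TR-FRET is read at 665 nm with 337 nm excitation after stimulation.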

Structure (SMILES) | activity change, negative = inhibition
Cc1ccc(-n2nc3c(=O)n(C(C)C(=O)NC4CC4)nc(C)c3c2C)cc1 (stereo unspecified) | inactive: 0.548%
O=C(Nc1ccc(C(F)(F)F)cc1)c1csc(-c2ccncc2)n1 | inactive: -1.76%
Cc1c(C(=O)NCc2ccc3c(c2)OCO3)sc2nc(-c3ccccc3)cn12 | inactive: -2.35%
CCOc1cc(C(=S)N2CCOCC2)ccc1OC(=O)c1ccccc1 | inactive: 4.47%
CC(=O)c1ccc(NC(=O)C(C)N(C)CC(=O)Nc2ccc(N3CCOCC3)cc2)cc1 (stereo unspecified) | inactive: 0.607%
COc1ccc(C(c2nnnn2Cc2cccs2)N2CCN(c3ccccc3)CC2)cc1OC (stereo unspecified) | inactive: 3.11%
CSc1nsc(NC(=O)OCc2ccc(Cl)cc2)n1 | inactive: 1.32%
CCOc1cc(/C=C(\C#N)c2nc(-c3cccs3)c(NC(C)=O)s2)ccc1O | inactive: 2.66%
O=C(NC(=S)Nc1ccccc1)c1cc(-c2ccccc2)nc2ccccc12 | inactive: 3.92%
O=C(CSc1ncnc2ccccc12)c1ccc2c(c1)OCCO2 | inactive: 5.67%
Cc1c(C(=O)OC/C(O)=C(\C#N)c2nc3ccccc3[nH]2)oc2ccc(Br)cc12 | inactive: 3.5%
COc1ccc(S(=O)(=O)Nc2ccc(C)cc2)cc1N(C)S(=O)(=O)c1ccc(Cl)cc1 | inactive: 2.85%
Cc1cc(C=O)c(C)n1-c1ccc(NC2CCCC2)c([N+](=O)[O-])c1 | inactive: 5.23%
O=C(Nc1ccccc1)c1nnsc1S(=O)(=O)c1ccc(Cl)cc1 | inactive: 6.33%
CC(Sc1nn(-c2ccc(F)cc2)c(=S)s1)C(=O)c1c(N)n(C)c(=O)n(C)c1=O (stereo unspecified) | inactive: -7.87%
CCCCCCOc1ccc(NC(=O)CC2C(=O)N(CC)C(=S)N2Cc2ccco2)cc1 (stereo unspecified) | inactive: -0.899%
Cn1cc(Cl)c(C(=O)N/N=C/c2ccc3c4c(cccc24)CC3)n1 | inactive: -6.33%
COCCNC(=S)N1CCCN(c2nc3cc(C)ccc3cc2C#N)CC1 | inactive: -2.31%
O=C(NC(Nc1nc2ccc([N+](=O)[O-])cc2s1)(C(F)(F)F)C(F)(F)F)c1ccccc1 | inactive: -4.16%
O=S(=O)(Nc1cccc(-c2cn3cccnc3n2)c1)c1ccc(-c2ccccc2)cc1 | inactive: 3.62%
CCc1nn(CC(=O)N2CCCCCC2)c(=O)c2cc3ccccc3n12 | inactive: 0.928%
Cn1c(CNC(=O)C(Cc2ccccc2)NC(=O)c2ccccc2)cc(=O)n(C)c1=O (stereo unspecified) | inactive: 3.33%
O=C(c1ccccc1)c1ccc(Cn2cc(-c3ccccc3)nn2)cc1 | inactive: -0.645%
CC(OC(=O)C1CCN(c2ccc(C(F)(F)F)cn2)CC1)C(=O)Nc1cccc([N+](=O)[O-])c1 (stereo unspecified) | inactive: -5.48%
COC(=O)c1cc(-c2c[nH]c3ccccc23)n[nH]1 | inactive: -5.11%
Cc1ccc(SCC(=O)NCc2ccccc2C)cc1 | inactive: 2.23%

Structure (SMILES) | activity change, negative = inhibition
CCC(C)(C)C1CCC(NC(=O)N2CCN(c3ccccc3O)CC2)CC1 (stereo unspecified) | inactive: -0.155%
C/C(=N/NS(=O)(=O)c1ccc(Br)cc1)c1ccc(NC(=O)c2ccc(C)o2)cc1 | inactive: 0.352%
CC(C)C(c1nnnn1C(C)(C)C)N1CCN(c2cccc(Cl)c2)CC1 (stereo unspecified) | inactive: -3.14%
Oc1c(Cl)cc(Cl)c(Cl)c1Cc1c(O)c(Cl)cc(Cl)c1Cl | inactive: 0.712%
O=C(Nc1ccc2nc3n(c(=O)c2c1)CCCCC3)C(=O)N1CCN(c2ccccc2F)CC1 | inactive: 1.09%
COc1ccc(NS(=O)(=O)c2cc(NC(=O)/C=C/c3cc(OC)ccc3OC)ccc2N2CCCCC2)cc1 | inactive: 3.57%
Cc1cc(=O)[nH]c(SCC(=O)Nc2ccc(Br)cc2)c1C#N | inactive: -3.68%
CC(C)Cn1c(-c2csc3c2CCCC3)n[nH]c1=S | inactive: 2.13%
COCCn1nnnc1C(c1cccs1)N1CCN(c2cc(C)ccc2C)CC1 (stereo unspecified) | inactive: -0.758%
Cc1nn(S(=O)(=O)c2ccccc2)c(C)c1Sc1ccc([N+](=O)[O-])cc1 | inactive: -3.75%
Cc1nc2ccc(Nc3nc4cc(S(=O)(=O)N5CCOCC5)ccc4o3)cc2s1 | inactive: -7.93%
CC(C)COc1cccc(-c2cc(C(=O)Nc3ccon3)c3ccccc3n2)c1 | inactive: 0.601%
CCOC(=O)N1CCN(C(=O)CCc2ccccc2)CC1 | inactive: 4.67%
CCOC(=O)c1sc(NC(=O)CSc2n[nH]c(-c3ccncc3)n2)c(C#N)c1C | inactive: -2.27%
c1ccc(CNc2ncnc3scc(-c4cccs4)c23)nc1 | inactive: 1.13%
CCOc1ccc2nc(SC3CC(=O)N(c4ccccc4)C3=O)sc2c1 (stereo unspecified) | inactive: 2.27%
O=C(COc1ccc(-c2ccccc2)cc1)Nc1cccnc1 | inactive: -1.76%
CC(C)(C)NC(=O)C(c1ccc(O)cc1)N(Cc1ccccc1)C(=O)CCC(=O)Nc1nccs1 (stereo unspecified) | inactive: -0.917%
Cc1cc(C(=O)NC2CCCc3c2cnn3-c2ccc(C(C)(C)C)cc2)nn1C (stereo unspecified) | inactive: 3.91%
CC(NC(=O)c1ccc([N+](=O)[O-])o1)C12CC3CC(CC(C3)C1)C2 (stereo unspecified) | inactive: 3.84%
CC1CCN(Cc2c(C(=O)N/N=C/c3cc(Cl)ccc3O)nnn2-c2nonc2N)CC1 | inactive: 5.93%
CCc1cc2c(NCc3ccccc3)nc(C)nc2s1 | inactive: -2.57%
O=S(=O)(Nc1ccc2cn[nH]c2c1)c1cc(Br)ccc1Br | inactive: -1.89%
CC1(C)CC(=O)c2c(nc3ccccc3c2N)C1 | inactive: 1.27%
COc1cccc(-c2nc(CS(=O)(=O)CC(=O)N3CCCCC3)c(C)o2)c1 | inactive: 1.63%

An excerpt of the results above, for reference:
Structure (SMILES) | activity change, negative = inhibition
CC(C)COc1cccc(-c2cc(C(=O)Nc3ccon3)c3ccccc3n2)c1 | inactive: 0.601%
CCOC(=O)N1CCN(C(=O)CCc2ccccc2)CC1 | inactive: 4.67%
CCOC(=O)c1sc(NC(=O)CSc2n[nH]c(-c3ccncc3)n2)c(C#N)c1C | inactive: -2.27%
c1ccc(CNc2ncnc3scc(-c4cccs4)c23)nc1 | inactive: 1.13%
CCOc1ccc2nc(SC3CC(=O)N(c4ccccc4)C3=O)sc2c1 (stereo unspecified) | inactive: 2.27%
O=C(COc1ccc(-c2ccccc2)cc1)Nc1cccnc1 | inactive: -1.76%
CC(C)(C)NC(=O)C(c1ccc(O)cc1)N(Cc1ccccc1)C(=O)CCC(=O)Nc1nccs1 (stereo unspecified) | inactive: -0.917%
Cc1cc(C(=O)NC2CCCc3c2cnn3-c2ccc(C(C)(C)C)cc2)nn1C (stereo unspecified) | inactive: 3.91%
CC(NC(=O)c1ccc([N+](=O)[O-])o1)C12CC3CC(CC(C3)C1)C2 (stereo unspecified) | inactive: 3.84%
CC1CCN(Cc2c(C(=O)N/N=C/c3cc(Cl)ccc3O)nnn2-c2nonc2N)CC1 | inactive: 5.93%
CCc1cc2c(NCc3ccccc3)nc(C)nc2s1 | inactive: -2.57%
O=S(=O)(Nc1ccc2cn[nH]c2c1)c1cc(Br)ccc1Br | inactive: -1.89%
